In PMC8616561:
These are yes or no findings as the source states them, for the method shown. Binding seen in cells or lysates may run through a third protein. Some entries that bind do so weakly or less than the wild type. Sequences can lack the tags named with a protein.

Sequences of proteins named here, by UniProt entry; tags and fusion partners are left off.
UniProt Q923J1: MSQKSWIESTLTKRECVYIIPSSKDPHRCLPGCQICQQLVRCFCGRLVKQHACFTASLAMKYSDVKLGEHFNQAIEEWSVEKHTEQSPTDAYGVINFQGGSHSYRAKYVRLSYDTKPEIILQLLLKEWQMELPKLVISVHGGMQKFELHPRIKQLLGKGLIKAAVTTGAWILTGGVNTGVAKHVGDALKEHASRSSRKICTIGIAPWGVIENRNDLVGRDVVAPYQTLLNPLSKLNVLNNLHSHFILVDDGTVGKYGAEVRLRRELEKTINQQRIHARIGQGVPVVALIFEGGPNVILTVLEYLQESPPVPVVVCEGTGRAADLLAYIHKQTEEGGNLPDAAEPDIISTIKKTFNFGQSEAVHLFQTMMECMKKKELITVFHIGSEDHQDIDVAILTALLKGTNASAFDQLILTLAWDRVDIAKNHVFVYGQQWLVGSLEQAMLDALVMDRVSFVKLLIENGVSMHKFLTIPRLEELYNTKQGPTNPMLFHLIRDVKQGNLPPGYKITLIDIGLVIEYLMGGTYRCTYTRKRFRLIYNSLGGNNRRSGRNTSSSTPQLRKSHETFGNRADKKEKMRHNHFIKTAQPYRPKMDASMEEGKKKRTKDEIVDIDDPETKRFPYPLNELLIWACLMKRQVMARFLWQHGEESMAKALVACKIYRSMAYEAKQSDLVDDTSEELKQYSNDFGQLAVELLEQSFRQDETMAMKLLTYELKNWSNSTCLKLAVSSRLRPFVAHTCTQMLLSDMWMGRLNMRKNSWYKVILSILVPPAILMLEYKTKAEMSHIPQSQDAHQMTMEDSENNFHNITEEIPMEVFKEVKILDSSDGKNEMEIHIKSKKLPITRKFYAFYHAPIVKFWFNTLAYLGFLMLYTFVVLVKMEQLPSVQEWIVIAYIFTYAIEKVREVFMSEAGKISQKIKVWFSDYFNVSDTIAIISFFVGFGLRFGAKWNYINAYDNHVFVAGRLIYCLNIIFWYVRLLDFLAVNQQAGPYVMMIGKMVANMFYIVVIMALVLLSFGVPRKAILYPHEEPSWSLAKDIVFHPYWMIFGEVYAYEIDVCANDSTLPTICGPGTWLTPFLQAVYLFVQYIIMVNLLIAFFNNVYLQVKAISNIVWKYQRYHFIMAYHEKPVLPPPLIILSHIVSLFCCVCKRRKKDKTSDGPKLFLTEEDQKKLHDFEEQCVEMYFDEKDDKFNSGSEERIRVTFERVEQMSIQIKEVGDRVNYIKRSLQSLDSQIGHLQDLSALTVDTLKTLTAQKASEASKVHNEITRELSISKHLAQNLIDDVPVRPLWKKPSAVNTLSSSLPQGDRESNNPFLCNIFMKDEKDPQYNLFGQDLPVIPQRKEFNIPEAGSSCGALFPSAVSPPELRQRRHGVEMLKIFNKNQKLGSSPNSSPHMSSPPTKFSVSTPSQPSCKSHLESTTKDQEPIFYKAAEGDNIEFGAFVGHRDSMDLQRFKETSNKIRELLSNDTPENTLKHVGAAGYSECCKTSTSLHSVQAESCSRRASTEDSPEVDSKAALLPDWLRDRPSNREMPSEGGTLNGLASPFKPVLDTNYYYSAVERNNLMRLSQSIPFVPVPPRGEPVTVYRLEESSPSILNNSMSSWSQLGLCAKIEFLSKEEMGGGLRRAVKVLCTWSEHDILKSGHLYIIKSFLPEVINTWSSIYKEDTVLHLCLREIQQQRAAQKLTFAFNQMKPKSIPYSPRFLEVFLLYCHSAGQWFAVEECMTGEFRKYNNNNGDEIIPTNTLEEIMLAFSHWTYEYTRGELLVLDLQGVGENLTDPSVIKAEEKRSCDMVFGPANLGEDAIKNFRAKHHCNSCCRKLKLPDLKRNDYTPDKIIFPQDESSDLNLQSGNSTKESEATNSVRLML
UniProt Q0GA42: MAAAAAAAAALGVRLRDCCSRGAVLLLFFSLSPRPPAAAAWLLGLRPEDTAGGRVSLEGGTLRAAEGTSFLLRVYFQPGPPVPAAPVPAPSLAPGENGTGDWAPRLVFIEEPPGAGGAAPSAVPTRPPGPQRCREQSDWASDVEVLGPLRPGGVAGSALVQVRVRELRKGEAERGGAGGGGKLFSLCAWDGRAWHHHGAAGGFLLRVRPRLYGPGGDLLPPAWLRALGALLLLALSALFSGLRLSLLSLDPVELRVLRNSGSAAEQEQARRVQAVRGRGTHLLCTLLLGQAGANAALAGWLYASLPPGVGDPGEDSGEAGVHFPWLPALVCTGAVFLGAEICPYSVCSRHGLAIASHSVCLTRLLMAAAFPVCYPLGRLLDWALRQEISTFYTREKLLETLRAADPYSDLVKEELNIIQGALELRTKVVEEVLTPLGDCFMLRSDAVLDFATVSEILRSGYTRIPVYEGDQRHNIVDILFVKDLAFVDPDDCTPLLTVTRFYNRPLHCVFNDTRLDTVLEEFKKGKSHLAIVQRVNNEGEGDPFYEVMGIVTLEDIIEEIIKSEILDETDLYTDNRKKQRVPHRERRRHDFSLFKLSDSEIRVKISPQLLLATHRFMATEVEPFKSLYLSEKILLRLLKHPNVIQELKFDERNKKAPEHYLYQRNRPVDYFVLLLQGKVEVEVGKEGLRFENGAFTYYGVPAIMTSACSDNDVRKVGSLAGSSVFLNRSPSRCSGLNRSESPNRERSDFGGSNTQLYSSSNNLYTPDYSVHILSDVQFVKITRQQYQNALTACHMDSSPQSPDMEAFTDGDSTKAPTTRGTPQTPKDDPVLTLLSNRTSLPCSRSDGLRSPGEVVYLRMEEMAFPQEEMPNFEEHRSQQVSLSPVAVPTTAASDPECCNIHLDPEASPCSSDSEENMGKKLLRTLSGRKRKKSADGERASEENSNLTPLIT

Experiments:
[1] = target: C-terminally HA-tagged mouse TRPM7 (mouse) (UniProt Q923J1); test: co-IP; anti-HA AP from CL-47 solubilised membrane fractions of TRPM7-/- HEK293 cells co-expressing TRPM7-HA with ARL15-Flag alone or CNNM-Flag alone; Western blot with anti-Flag and anti-HA
[2] = target: C-terminally HA-tagged mouse TRPM7 (mouse) (UniProt Q923J1); test: co-IP; anti-HA AP from CL-47 solubilised membrane fractions of TRPM7-/- HEK293 cells co-expressing TRPM7-HA, ARL15-Flag and CNNM-Flag (all three present); Western blot with anti-Flag and anti-HA

Myc-Flag-tagged mouse CNNM1 (from UniProt Q0GA42 1-951)
binding [1]: binds
binding [2]: binds

B1: Myc-Flag-tagged mouse ARL15 (protein, UniProt Q8BGR6 1-204)
chain: MSDLRITEAFLYMDYLCFRALCCKGPPPARPEYDLVCIGLTGSGKTSLLSELCSESPENVVSTTGFSIKAVPFQNAVLNVKELGGADNIRKYWSRYYQGSQGVIFVLDSASSEDDLETARNELHSALQHPQLCTLPFLILANHQDKPAARSVQEIKKYFELEPLARGKRWILQPCSLDDVDTLKDSFSQLINLLEEKDHEAVRM
binding [1]: binds
binding [2]: binds

B2: Myc-Flag-tagged mouse CNNM2 (protein, UniProt Q3TWN3 1-875)
chain: MIGCGACEPEVKMAGGQAAAALPTWKMAARRSLSARGRGVLQAAAGRLLPLLLLSCCWGAGGCTAAGENEETVIIGLRLEDTNDVSFMEGGALRVSERTRVKLRVYGQNINNETWSRIAFTEHERRRHTPSERGLGGPAPPEPDSGPQRCGIRTSDIIILPHIILNRRTSGIIEIEIKPLRKMEKSKSYYLCTSLSTPALGAGGSGSASGTVGGKGGAGVAGLPPPPWAETTWIYHDGEDTKMIVGEEKKFLLPFWLQVIFISLLLCLSGMFSGLNLGLMALDPMELRIVQNCGTEKEKNYAKRIEPVRRQGNYLLCSLLLGNVLVNTTLTILLDDIAGSGLVAVVVSTIGIVIFGEIVPQAICSRHGLAVGANTIFLTKFFMMMTFPASYPVSKLLDCVLGQEIGTVYNREKLLEMLRVTDPYNDLVKEELNIIQGALELRTKTVEDVMTPLRDCFMITGEAILDFNTMSEIMESGYTRIPVFEGERSNIVDLLFVKDLAFVDPDDCTPLKTITKFYNHPLHFVFNDTKLDAMLEEFKKGKSHLAIVQRVNNEGEGDPFYEVLGIVTLEDVIEEIIKSEILDETDLYTDNRTKKKVAHRERKQDFSAFKQTDSEMKVKISPQLLLAMHRFLATEVEAFSPSQMSEKILLRLLKHPNVIQELKYDEKNKKAPECYLYQRNKPVDYFVLILQGKVEVEAGKEGMKFEASAFSYYGVMALTASPVPLSLSRTFVVSRTEVLAAGSPGENKSPPRPCGLNHSDSLSRSDRIDAMTPTLGSSNNQLSSSFLQVYIPDYSVRALSDLQFVKISRQQYQNALMASRMDKTPQSSDSENTKIELTLTELHDGLPDETANLLNEQNCVSHNKANHSLHSEGAI
binding [1]: binds
binding [2]: binds

B3: Myc-Flag-tagged mouse CNNM3 (protein, UniProt Q32NY4 1-713)
chain: MAAAAAAVVGWLGWVLAAFCLGSTAGEAAPAPGAGLLNFCTEEDSAPGAGSLRGRAAPEATLCLRLFCSGLANSSWTWVAAEGAGCPEGGRATEPEEAAAPTGEWRALLRLRAEAGHPRSALLAVRVEPGGGAAEEAAPPWALGLGAAGLLALAAVARGLQLSALALAPAEVQVLRESGSEAERAAARRLEPARRWAGCALGALLLLASLAQAALAVLLYGAAGQRAVPAVLGCAGLVFLVGEVLPAAVSGRWALALAPRALGLSRLAVLLTLPVALPVGQLLELAARPGRLRERVLELARGGGDPYSDLSKGVLRSRTVEDVLTPLEDCFMLDSGTVLDFSVLASIMQSGHTRIPVYEEERSNIVDMLYLKDLAIVEPEDCTPLSTITRFYNHPLHFVFNDTKLDAVLEEFKRGKSHLAIVQKVNNEGEGDPFYEVLGLVTLEDVIEEIIKSEILDESEDYSDTKVRKKTVALGAPLKRKEEFSLFKVSDDEYKVKISPQLLLATQRFLSREVDVFSPLRVSEKVLLHLLKHPSVNQEVTFDESNRLAAHHYLYQRSQPVDYFILILQGRVEVEIGKEGLKFENGAFTYYGVSALTAPSSAHQSPVSSRQLIRHDVQPEPADGTRSCTYCPDYTVRALSDLQLIKVTRLQYLNALLATRAQSLPPSPENAELQAIPGSQTRLLGDKSRETAGSTNSRPSIPVEESPGRNPGV
binding [1]: binds
binding [2]: binds

B4: Myc-Flag-tagged mouse CNNM4 (protein, UniProt Q69ZF7 1-771)
chain: MAPGGGGGRRDGWPARGRLLLAALLLLWTRAASGQSSPQQSVILGMRLASCNKSCGMNPDGIIFVSEGSTVNLRLYGHSLGDISSNLISFTEVDDAEAVHNSTNCLELTKDLVVQRLVNVSRGNTSGMLVVITKFLRRSENMKLYALCTRPRADGPWTRWTDKDSLLFMVEEHGRFLPLWLHILLVMVLLVLSGIFSGLNLGLMALDPMELRIVQNCGTEKERKYARKIEPIRRKGNYLLCSLLLGNVLVNTSLTILLDNLIGSGIMAVASSTIGIVIFGEILPQALCSRHGLAVGANTIVLTKVFMLLTFPLSFPISKLLDFVLGQEIRTVYNREKLMEMLKVTEPYNDLVKEELNMIQGALELRTKTVEDIMTQLHDCFMIRSDAILDFNTMSEIMESGYTRIPVFEDEQSNIVDILYVKDLAFVDPDDCTPLKTITRFYNHPVHFVFHDTKLDAMLEEFKKGKSHLAIVQKVNNEGEGDPFYEVLGLVTLEDVIEEIIKSEILDESDMYTDNRTRKRVSVKNKRDFSAFKDTDNELKVKISPQLLLAAHRFLATEVPQFSPSLMSEKILLRLLKYPDVIQELRFNEHNRYCVRHYLYTRNKPADCFVLILQGKVEVEAGKENMKFETGAFSYYGTMALSVAPPDRSPALPTPLSRSASLSYPDRNTDLTSTSLAGSNQFGSCILGQYVSDFSVRALTDLQYIKITRQQYQNGLMASRMDNSPQPTFDGCATCSENFMERPELPPVDETTTLLNERNSLLHRASEEETI
binding [1]: binds
binding [2]: binds
